Measured data: PubChem BioAssay AID1508597 (Cure First, 2020)

Purpose: 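Genes whose silencing sensitises or protects ovarian cancer cells against rucaparib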 (primary screen)
System: human ovarian carcinoma lines grown from tumours: OCI-P5x (papillary serous) and OCI-C5x (clear cell)
Reagent: siRNA pool against human genes, 1.25 pmol siRNA per well
Duration: 72 h or 96 h, depending on the cell culture
Treatment: rucaparib 20 µM (about IC30) or vehicle, present until read-out
Rucaparib or vehicle: Vehicle
Cell line: OCI-C5x (clear cell)
Read-out: 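ATP luminescence measured at 72 or 96 h according to the culture, then normalised and expressed as percent viability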
Scale: viability, normalised: higher = more viable cells remaining
Active means: 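a well counts as a hit if its normalised viability is under 80 percent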
Calls: active = viability under 80%; inactive = viability 80% or more
This is an unselected part of the about 2,100 reagents, under one of the conditions tested. 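Calls flag viability under 80% in either arm, not effects specific to rucaparib; the reference for percent is not stated.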 Some reagents were tested in more than one well and are listed for each. Reagent sequences are not shown. Not stated in the record: the 100% reference.

Gene	technical replicate	viability, normalised (%)	Call
PIK3R3 (GeneID 8503)	1	50.7	active
PIK3R3 (GeneID 8503)	2	58.8	active
PIK3R3 (GeneID 8503)	3	61.8	active
PDE6A (GeneID 5145)	1	56.8	active
PDE6A (GeneID 5145)	2	64.2	active
PDE6A (GeneID 5145)	3	36.3	active
IRS2 (GeneID 8660)	1	80.2	inactive
IRS2 (GeneID 8660)	2	57	active
IRS2 (GeneID 8660)	3	49	active
POLD1 (GeneID 5424)	1	48.4	active
POLD1 (GeneID 5424)	2	32.3	active
POLD1 (GeneID 5424)	3	48	active
TDRD10 (GeneID 126668)	1	62.2	active
TDRD10 (GeneID 126668)	2	65.4	active
TDRD10 (GeneID 126668)	3	47.3	active
PRPS2 (GeneID 5634)	1	57.1	active
PRPS2 (GeneID 5634)	2	61.9	active
PRPS2 (GeneID 5634)	3	65.8	active
XRCC5 (GeneID 7520)	1	128	inactive
XRCC5 (GeneID 7520)	2	57	active
XRCC5 (GeneID 7520)	3	48	active
PRKCB (GeneID 5579)	1	38	active
PRKCB (GeneID 5579)	1	125	inactive
PRKCB (GeneID 5579)	2	47.1	active
PRKCB (GeneID 5579)	2	26.2	active
PRKCB (GeneID 5579)	3	37.1	active
PRKCB (GeneID 5579)	3	60.9	active
CAMKK2 (GeneID 10645)	1	60.5	active
CAMKK2 (GeneID 10645)	2	64.9	active
CAMKK2 (GeneID 10645)	3	59.6	active
IKBKB (GeneID 3551)	1	43.6	active
IKBKB (GeneID 3551)	2	54.2	active
IKBKB (GeneID 3551)	3	46.9	active
EIF2AK1 (GeneID 27102)	1	82.5	inactive
EIF2AK1 (GeneID 27102)	2	57.3	active
EIF2AK1 (GeneID 27102)	3	51.4	active
HNRNPM (GeneID 4670)	1	88.8	inactive
HNRNPM (GeneID 4670)	2	84.2	inactive
HNRNPM (GeneID 4670)	3	54.5	active
ALPK2 (GeneID 115701)	1	82.2	inactive
ALPK2 (GeneID 115701)	2	71	active
ALPK2 (GeneID 115701)	3	77.6	active
SLC6A3 (GeneID 6531)	1	31	active
SLC6A3 (GeneID 6531)	2	39.8	active
SLC6A3 (GeneID 6531)	3	38.8	active
LRRK1 (GeneID 79705)	1	37.1	active
LRRK1 (GeneID 79705)	2	41.9	active
LRRK1 (GeneID 79705)	3	42.1	active
PRKD2 (GeneID 25865)	1	41.2	active
PRKD2 (GeneID 25865)	2	41.9	active
PRKD2 (GeneID 25865)	3	40.4	active
BMPR2 (GeneID 659)	1	71.3	active
BMPR2 (GeneID 659)	2	57	active
BMPR2 (GeneID 659)	3	59.4	active
RASGRF1 (GeneID 5923)	1	79	active
RASGRF1 (GeneID 5923)	2	69.3	active
RASGRF1 (GeneID 5923)	3	48.2	active
